From patent US20110136883A1, “GRANULATION OF ACTIVE PHARMACEUTICAL INGREDIENTS” (LEK PHARMACEUTICALS D.D., priority 2008, published 2011)
Some results were stated once for a whole list of compounds, not compound by compound.

Assay: Water activity of excipients
Type: physicochemical
Conditions: nonaqueous liquid excipient itself

Structure (SMILES): OCC(O)CO [glycerol]
- water activity: more than 0.7
